PubChem BioAssay AID1259280, Sanger Institute, 2017
The whole screen tested 794 reagents; this is a random part of them. Over the whole deposit, 12 (1.5%) were called active. 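Calls cover knock-down without drug only; synergy scores stand apart, values above 0.15 being treated as synergy.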 Not all columns of the deposit are shown. Not stated in the record: the amount of reagent, the time to read-out.

Test: 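Kinome siRNA screen for partners that synergise with BYL719, cetuximab or trametinib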 (primary screen)
System: human SNU407 colorectal cancer cells
Reagents: siRNA pool against human genes
Challenge: anchor drugs BYL719 at 1 µM, cetuximab at 5 µg/ml or trametinib at 10 nM, or DMSO vehicle alone; exposure time not given
Read-out: 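Viability per well scaled to a non-targeting pool and averaged over replicates, with a robust z-score from controls and a synergy score per anchor drug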
Reading the numbers: viability z-score, no drug: higher = more cells survive the knock-down
Call rule: 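a knock-down counts as essential when its robust viability z-score without drug is below -3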
Calls: active = essential (knock-down alone kills cells); inactive = no change without drug

| target | PubChem SID | viability z-score, no drug | call |
| --- | --- | --- | --- |
| KIT | SID152151885 | 0.901 | inactive |
| RIPK2 | SID152156478 | 0.901 | inactive |
| MAST4 | SID135625002 | 0.901 | inactive |
| PIP4K2A | SID135621253 | 0.901 | inactive |
| MAP3K19 | SID135620896 | -0.506 | inactive |
| MYH10 | SID134325581 | 0.0457 | inactive |
| CERK | SID152152071 | 0.901 | inactive |
| MAP2K7 | SID56478752 | -0.231 | inactive |
| CDK10 | SID152152801 | 0.476 | inactive |
| BRD4 | SID152154839 | -0.133 | inactive |
| JAK2 | SID56478524 | -0.32 | inactive |
| AKAP9 | SID134321301 | 0.834 | inactive |
| PFKL | SID56479167 | -0.123 | inactive |
| PIM3 | SID135625114 | -0.358 | inactive |
| FN1 | SID134314553 | -0.872 | inactive |
| FGFR3 | SID56478513 | 0.901 | inactive |
| NTN4 | SID152155179 | -0.41 | inactive |
| PTPRU | SID152150387 | -0.576 | inactive |
| RNASEL | SID56478962 | -0.511 | inactive |
| NPR2 | SID152151652 | -0.217 | inactive |
| CKB | SID56479084 | 0.901 | inactive |
| IRAK4 | SID134309837 | 0.351 | inactive |
| ACVR2A | SID152150723 | 0.859 | inactive |
| AK1 | SID152147390 | -1.7 | inactive |
| AXL | SID152148834 | 0.191 | inactive |
| TGFBR2 | SID152152630 | 0.482 | inactive |
| LATS1 | SID56478819 | -0.383 | inactive |
| INSRR | SID56479015 | 0.555 | inactive |
| EFNA4 | SID134312013 | 0.237 | inactive |
| ABL1 | SID135620610 | 0.276 | inactive |
| RFK | SID152154046 | -0.108 | inactive |
| FOXP1 | SID135620800 | -1.12 | inactive |
| SRGAP3 | SID152151814 | 0.553 | inactive |
| POLR2B | SID134315545 | -3.5 | active |
| LYN | SID135620625 | 0.901 | inactive |
| EPHA3 | SID152156000 | 0.409 | inactive |
| MAP3K1 | SID152150888 | 0.901 | inactive |
| PKLR | SID152148534 | 0.268 | inactive |
| CHEK2 | SID152153325 | 0.901 | inactive |
| FES | SID56478510 | -1.13 | inactive |
| PRPS1 | SID56479145 | -0.916 | inactive |
| ACSL6 | SID152156030 | -0.724 | inactive |
| WEE1 | SID152152823 | -1.04 | inactive |
| CDKL1 | SID56478790 | -0.975 | inactive |
| MLKL | SID56479010 | 0.901 | inactive |
| CDK11A | SID152154784 | -2.4 | inactive |
| MAP3K9 | SID152152652 | -0.555 | inactive |
| CASP8 | SID135620682 | 0.901 | inactive |
| FCSK | SID152149608 | 0.108 | inactive |
| ITPKC | SID56479112 | 0.901 | inactive |
